Experimental data: PubChem BioAssay AID504764 (Drosophila RNAi Screening Center, 2011)

- Purpose: 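Genes whose knock-down alters Notch-dependent transcription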 (primary screen)
- Cells: Drosophila Kc167 cells
- Knock-down reagent: long dsRNA against Drosophila genes
- Timing: about 5 days (4 days dsRNA, then 24 h after transfection)
- Conditions: transfection of constitutively active membrane-tethered Notch lacking the extracellular domain, read 24 h later
- Read-out: 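Firefly luciferase from an E(spl)m3 reporter with active Notch, plus control-promoter and uninduced reporter wells for normalisation; unnormalised counts, duplicate wells a and b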
- Direction: induced reporter light, run 1, well a and induced reporter light, run 1, well b: higher = more light from the Notch target reporter with active Notch; control promoter light, run 1, well a and control promoter light, run 1, well b: higher = more light from the viral control promoter (cell number, transfection, viability); uninduced reporter light, run 1, well a: higher = more light from the Notch target reporter without active Notch
- Hit rule: 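Hit if the duplicate-averaged log2 ratio of induced to control-promoter light gives a plate-wise z beyond ±2, or induced to uninduced beyond ±1.8; weak-control or discordant-duplicate wells dropped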
- Meaning of the calls: active = modifier hit (raised or lowered Notch signal); inactive = not a hit
The deposit covers about 22,000 reagents; this is a random part of those that have a named target and a result. In the full data, 403 (1.9%) were called active. 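Unnormalised raw counts per well; ratio z-scores behind the hit calls and whether each hit raises or lowers signal are not deposited.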 The numbers tell different reagents against one gene apart. A plus sign joins genes that one reagent is predicted to hit. The record does not give: the amount of reagent.

no.	Gene	reagent	induced reporter light, run 1, well a	induced reporter light, run 1, well b	control promoter light, run 1, well a	control promoter light, run 1, well b	uninduced reporter light, run 1, well a	Call
1	Rbf (Retinoblastoma-family protein)	1	1.80e5	1.77e5	2.27e5	2.29e5	12775	inactive
2	CG4972	1	1.52e5	1.48e5	90995	1.03e5	19040	inactive
3	S6KL (S6 Kinase Like)	1	1.25e5	1.29e5	93570	69260	8345	inactive
4	CG31960	1	1.03e5	86865	97605	89220	6010	inactive
5	Recs1	1	3.07e5	3.32e5	2.88e5	2.84e5	24015	inactive
6	CG10912	1	37070	37170	58475	59385	3520	inactive
7	CG17625	1	1.85e5	1.32e5	1.93e5	1.76e5	13375	inactive
8	Cyp28d1 (Cytochrome P450 28d1)	1	1.87e5	1.73e5	1.79e5	1.58e5	15975	inactive
9	CG1806	1	1.86e5	1.96e5	2.38e5	2.26e5	14620	inactive
10	140up (upstream of RpII140)	1	1.34e5	1.27e5	99935	85535	9825	inactive
11	ect (ectodermal)	1	2.40e5	2.07e5	3.26e5	1.96e5	8620	inactive
12	ect (ectodermal)	2	1.49e5	1.41e5	1.35e5	1.53e5	9255	inactive
13	CG5674	1	8910	9735	14195	12210	3065	inactive
14	fzr2 (fizzy-related 2)	1	2.21e5	2.18e5	1.68e5	1.81e5	13740	inactive
15	Clk (Clock)	1	1.77e5	1.55e5	2.38e5	1.80e5	11560	inactive
16	CG14543	1	2.15e5	1.69e5	2.71e5	2.87e5	14590	inactive
17	Su(z)12	1	1.23e5	96160	88295	67515	8832	inactive
18	ATPsyngamma (ATP synthase, gamma subunit)	1	37535	33385	53805	53250	2910	inactive
19	UGP + PGRP-LF	1	1.65e5	1.51e5	2.34e5	2.38e5	9340	inactive
20	CG8026	1	2.62e5	2.00e5	2.06e5	2.19e5	16380	inactive
21	CG8026	2	1.71e5	1.34e5	2.43e5	2.03e5	15395	inactive
22	l(2)k09022 (lethal (2) k09022)	1	1.56e5	1.78e5	1.80e5	2.13e5	14275	inactive
23	Pex11c (Peroxin 11c)	1	1.69e5	1.58e5	1.89e5	1.92e5	12805	inactive
24	CG18223	1	89335	76340	84525	76465	5005	inactive
25	SrpRalpha (Signal recognition particle receptor alpha)	1	1.99e5	1.55e5	2.23e5	2.48e5	13445	inactive
26	cpa (capping protein alpha)	1	85215	1.16e5	1.26e5	1.57e5	8380	active
27	Cpr64Ad (Cuticular protein 64Ad)	1	1.35e5	2.05e5	2.32e5	1.92e5	10310	inactive
28	CG30467	1	90900	98750	89415	91770	7140	inactive
29	CG13155	1	94135	88485	1.20e5	1.04e5	8870	inactive
30	CG17249	1	79465	85120	1.62e5	1.48e5	8300	inactive
31	CG10734	1	1.04e5	96515	98100	1.05e5	10225	inactive
32	nis	1	1.87e5	2.46e5	2.37e5	2.67e5	18560	inactive
33	Ada3 (transcriptional Adaptor 3)	1	62310	56800	88770	70300	11600	inactive
34	Ada3 (transcriptional Adaptor 3)	2	72445	53335	68970	75650	9810	inactive

Active calls (from the list above):
Gene	reagent	induced reporter light, run 1, well a	induced reporter light, run 1, well b	control promoter light, run 1, well a	control promoter light, run 1, well b	uninduced reporter light, run 1, well a	Call
cpa (capping protein alpha)	1	85215	1.16e5	1.26e5	1.57e5	8380	active
